Results deposited as PubChem BioAssay AID652259 (Drosophila RNAi Screening Center, 2013)
The screen tested about 22,000 reagents; shown is an unselected part of those that have a named target and a result. In the full data, 233 (1.1%) were called active. 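Light values are raw, unnormalised plate reads; the ratio scores behind the reporter calls were not deposited.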 Unmarked entries are inactive. Not stated in the record: the amount of reagent, the time to read-out, the dose of the treatment.

Purpose: 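Genome-wide hunt for genes that control Wingless pathway activity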 (primary screen)
Cell system: Drosophila clone 8 imaginal disc epithelial cells
Reagent: long dsRNA against Drosophila genes
Treatment: pathway stimulated by co-transfected Wingless expression plasmid
Read-out: 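Dual luciferase reads per well after Wingless plasmid stimulation: reporter firefly light and Renilla control light; activity is firefly divided by Renilla, a ratio not deposited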
Scale: firefly reporter light: higher = more Wg reporter light, before normalisation; Renilla control light: higher = more transfected or surviving cells
Rule for the call: 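Strong candidates differ from their plate mean by at least two out of four per-plate statistical tests; weak candidates meet just one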
Calls: active = candidate regulator (raises or lowers reporter); inactive = not a candidate

dbr (debra) [DRSC00274] scored firefly reporter light, replicate 1 = 9360; Renilla control light, replicate 1 = 3066.
heix (heixuedian) [DRSC03542] showed firefly reporter light, replicate 1 = 3619; Renilla control light, replicate 1 = 1901.
Dph2 (Diphthamide biosynthesis 2) [DRSC16222] showed firefly reporter light, replicate 1 = 4265; Renilla control light, replicate 1 = 2048.
Silencing of Coq8 (Coenzyme Q8) [DRSC19900] came out at: firefly reporter light, replicate 1 = 13216; Renilla control light, replicate 1 = 7249.
For cyc (cycle) [DRSC11337], the values are firefly reporter light, replicate 1 = 18480; Renilla control light, replicate 1 = 5113.
After knock-down of lwr (lesswright) [DRSC00828], the record shows firefly reporter light, replicate 1 = 22183; Renilla control light, replicate 1 = 4550.
Silencing of CG6785 [DRSC02993] came out at: firefly reporter light, replicate 1 = 6864; Renilla control light, replicate 1 = 1568.
CG11601 [DRSC00318] showed firefly reporter light, replicate 1 = 2673; firefly reporter light, replicate 2 = 7460; Renilla control light, replicate 1 = 736; Renilla control light, replicate 2 = 2707.

An excerpt from above, limited to “Renilla control light, replicate 1”.
heix (heixuedian) [DRSC03542]: 1901
Dph2 (Diphthamide biosynthesis 2) [DRSC16222]: 2048

Continued:
Depletion of nito (spenito) [DRSC05943] resulted in: firefly reporter light, replicate 1 = 6306; Renilla control light, replicate 1 = 2252.
After knock-down of CG10175 [DRSC13628], the screen gave firefly reporter light, replicate 1 = 3062; Renilla control light, replicate 1 = 1379.
Against CG10175 [DRSC14200], the values are firefly reporter light, replicate 1 = 25458; Renilla control light, replicate 1 = 19611.
Against CG10175 [DRSC21981] the deposit lists firefly reporter light, replicate 1 = 5.35e5; firefly reporter light, replicate 2 = 5.58e5; Renilla control light, replicate 1 = 2.35e5; Renilla control light, replicate 2 = 2.55e5.
